Mtb growth Cornell: 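Whole-cell assay for inhibitors of Mycobacterium tuberculosis growth, labelled Cornell in the record; the read-out is not stated. The concentration is filed as 10 mM, unlikely as a test dose, so the dose is not known. Higher means stronger inhibition (inferred from two other growth screens of the library). Size under these conditions: about 53,000 compounds, about 900 of them at 50% or above in at least one test.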
Mtb heat-shock: 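Assay on Mycobacterium tuberculosis, filed only as a heat shock assay from Cornell; the read-out is not stated. The concentration is filed as 10 mM, unlikely as a test dose, so the dose is not known. The record gives no direction; compounds that gave an IC50 in retests scored well above the rest, so higher reads as stronger inhibition. Of about 69,000 compounds tested this way, about 930 (1.4%) reached 50% or more in at least one test.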

Each number is a percent effect as filed. How 0% and 100% were set is not recorded. Most values in the screen are low, and negative values occur. Compounds were drawn at random from those tested, without regard to their results. Two or more numbers in one place are separate tests of the same structure; such repeats can differ widely. A dash means the value is not listed here; it may have been measured.

| compound | Mtb growth Cornell | Mtb heat-shock |
|---|---|---|
| `O=C(O)C(F)(F)F.[H][C@]12CCN(S(=O)(=O)CC)CC[C@@]1([H])S(=O)(=O)CCN2Cc1cccc(C)n1` | 24.91% | -39.86% |
| `CCc1ncc(CN2CCCN(CC3CC3)C(C(C)C)C2)cn1` (stereo unspecified) | 10.67% | 13.38% |
| `O=C(Cn1ccnc1)N1CCCC(OCc2cccnc2)C1` (stereo unspecified) | -41.24% | -28.32% |
| `Cc1nc(-c2cccc(C(=O)O)c2)cc(C2CCCN(C(C)C)C2)n1` (stereo unspecified) | -41.22% | -26.64% |
| `NC(=O)Nc1cccc(C(=O)N(Cc2ccncc2)C2CC2)c1` | 1.847% | -26.93% |
| `CCc1ccc(CN2CCc3[nH]nc(C(=O)N4CCNC(=O)C4)c3C2)o1` | 24.05% | -22% |
| `Cc1nn(C)c(C)c1CCC(=O)NCc1cccnc1OC1CCCC1` | 2.521% | -26.68% |
| `O=C(O)C(F)(F)F.O=C(c1ccncc1)N1CCOC2(CCCN(c3nncs3)C2)C1` (stereo unspecified) | -10.67% | 34.43% |
| `COc1ccccc1-c1cc(C(=O)N(C)C)c2cnn(C)c2n1` | - | -30.8% |
| `CCc1nc(C)c(CNC(=O)CCCN2CCCCC2)s1` | 23.15% | -21.52% |
| `Cc1cnn(CC2CCCN2C(=O)c2ccc(F)cc2Cl)c1` (stereo unspecified) | - | -10.86% |
| `N#CCC(=O)NCc1nnc2n1CCN(Cc1ccco1)C2` | 23.3% | 4.501% |
| `COCCN(C(=O)c1cc(C)no1)c1ccc(C#N)cc1` | 7.107% | -0.7301% |
| `Cn1nnc2c1CCN(S(C)(=O)=O)C2COCc1ccccc1` (stereo unspecified) | -23.06% | -26.49% |
| `C=C(C)CN1CCC(NC(=O)NCCc2cccc(C(N)=O)c2)CC1` | 30.72% | -8.692% |
| `COc1ccc(OC)c(C(=O)N(C)Cc2ncc(C)c(OC)c2C)c1` | -24.13% | 10.52% |
| `O=C(O)C(F)(F)F.O=C(O)C(F)(F)F.c1ccc(N2CCC3(COCCN(Cc4cccs4)C3)C2)nc1` (stereo unspecified) | 32.52% | 0.5206% |
| `CCc1ccc(NS(=O)(=O)CC2=NC(=O)n3cccc3C2=O)cc1` | - | 11.13% |
| `O=C(Nc1c(N2CCCC2)cccc1N1CCCC1)c1cnccn1` | -5.754% | 26.63% |
| `O=C(O)C(F)(F)F.[H][C@@]12CN(CC)C[C@]1([H])[C@H](OC)CCN2S(=O)(=O)c1ccccc1F` | -1.674% | -0.03284% |
| `Cc1cnn(CC2CCN(CC(O)c3ccccc3Cl)CC2)c1` (stereo unspecified) | 17.32% | -19.01% |
| `[H][C@]1([C@H](O)c2ccc(NC(=O)COC)cc2)COCC(=O)N1C` | 9.556% | -39.86% |
| `Fc1ccc(NC2CCCN(Cc3ccncc3)C2)cc1` (stereo unspecified) | -23.84% | -22.35% |
| `CCOc1ccc(CN2CCC(c3ccn[nH]3)C2)cc1CO` (stereo unspecified) | 6.484% | -14.03% |
| `CCc1ncc(C(=O)NCCN2CCNC2=O)cn1` | 12.21% | 16.74% |
| `Cc1cnn(CCNc2ncnc3c2CCN(CC2CCOC2)CC3)c1` (stereo unspecified) | 9.274% | 12.32% |
| `O=C(O)C(F)(F)F.[H][C@@]12C[C@@H](Oc3cccc(F)c3)CN1CCN(C(=O)c1ccnnc1)C2` | 19.7% | -12.9% |
| `Cc1ccc(C(=O)Nc2ccc3c(c2)N(C)CCN(C)C3)c(=O)[nH]1` | -43.21% | 5.449% |
| `Cc1ccc(Cl)cc1C(=O)N1CCC2(CC1)c1ccccc1[C@@H](N)[C@@H]2O` | - | 23.4% |
| `O=C(O)C(F)(F)F.[H][C@@]12OCCN(CC3CCOCC3)[C@@]1([H])CC[C@H]2OCC` | -13.99% | -50.97% |
| `CCOCC1CN(C(=O)c2ccncc2)Cc2nn(C)cc21.O=C(O)C(F)(F)F` (stereo unspecified) | 12.13% | 16.99% |
| `CCSc1cc(C(=O)NC2CCN(C(=O)c3ccccc3)CC2)ccn1` | 20.36% | 11.59% |
| `COc1ccccc1C1CNCCN1C(C)=O` (stereo unspecified) | -4.381% | 8.343% |
| `O=C(O)C(F)(F)F.[H][C@]12CCC[C@@]1(COCc1cccnc1)CN(C(=O)c1ccn(C)n1)C2` | - | -13.25% |
| `Cc1ccc(CNC(=O)Cn2c(=O)c3cccnc3n2C)cc1F` | -15.1% | -5.079% |
| `O=C(c1ccnc(-n2cnnc2)c1)N1CCCC2(CCNC2)C1` (stereo unspecified) | -24.92% | -2.29% |
| `O=C(NCc1ccco1)N(CCCO)C1CCCc2ccccc21` (stereo unspecified) | - | -16.77% |
| `Cc1nccn1CC1CCCN1CCCc1nc(-c2cccs2)no1` (stereo unspecified) | 10.69% | 16.57% |
| `c1cnc(-c2nn3c(CN4CCCCC4)nnc3s2)cn1` | - | 9.995% |
| `Cc1nc(N2CCCC(OCc3ccccn3)C2)c2c(C)noc2n1` (stereo unspecified) | - | 5.633% |
| `O=C(C1CCCC1)N1CCOc2cccc(F)c21` | - | 0.622% |
| `Cc1cnn(C2CN(CCOc3cccc(C#N)c3)C2)c1` | - | 5.376% |
| `OC1(CN2CCCCC2)CCN(c2cccc(C(F)(F)F)n2)C1` (stereo unspecified) | - | -13.89% |
| `CCc1cc(N(C)Cc2[nH]nc3c2CCC3)nc(N2CCOCC2)n1` | 32.86% | -16.74% |
| `Cc1nccn1CCC1CCN(c2ccncn2)CC1` | 5.767% | 2.959% |
| `Cn1cc(Br)c(=O)c(NS(=O)(=O)c2ccccc2F)c1` | - | -15.87% |
| `CCn1ccc(C(=O)Nc2ccc3c(c2)C(C)(C)C(=O)N3C)n1` | 19.54% | 8.616% |
| `CCn1ccnc1CN1CCN(Cc2cc(C#N)ccc2F)CC1` | - | -35.96% |
| `COc1cccc(S(=O)(=O)CCN2CCN(CCO)CC2)c1` | 30.97% | -0.6679% |
| `Cn1c(=O)oc2ccc(Nc3ncc(C#N)cc3Cl)cc21` | 31.13% | -15.51% |
| `CCc1nc(CN(C)CC(N)=O)cs1` | - | -25.66% |
| `COc1cccc(CNc2cc(CO)ccc2Cl)c1` | 9.804% | -11.45% |
| `COCC1CN(C(=O)Cc2cccs2)Cc2c1cnn2C` (stereo unspecified) | -14.62% | -4.883% |
| `COc1ccccc1NC(=O)CCNC(=O)c1ccoc1` | -46.31% | -13.74% |
| `Cc1cc(C)n(C2CCCN(C(=O)Cc3cccc(F)c3)C2)n1` (stereo unspecified) | - | -12.55% |
| `CCn1ccnc1CN1CCOC(Cn2cccn2)C1` (stereo unspecified) | -72.02% | -4.868% |
| `Cn1nc(Cn2cccn2)c2c1CN(Cc1ccsc1)C2.O=C(O)C(F)(F)F` | 7.825% | -19.73% |
| `CC(=O)N1CCCC(C(=O)NCCc2csc(-c3ccncc3)n2)C1` (stereo unspecified) | 13.46% | -29.15% |
| `COc1ccc(NC(=O)Cn2ccc3c(=O)n(C)ccc32)cc1OC` | 25.67% | 10.72% |
| `Cc1oc(-c2ccco2)nc1CNC1CCCN(c2cccnn2)C1` (stereo unspecified) | - | 5.942% |
| `CNC(=O)c1cccnc1NCCOc1ccc(CC#N)cc1` | - | -1.212% |
| `O=C(Cn1cc(-n2cccc2)cn1)NCC(F)(F)F` | 33.45% | 19.02% |
| `[H][C@]12CC[C@]([H])(CN(c3nc(C)c4ccc(S(C)(=O)=O)cc4n3)C1)N2` | 10.55% | -20.48% |
| `CCc1cc(CN(C)C(=O)CN2CC(Cc3ccccc3)CC2=O)on1` (stereo unspecified) | - | -17.63% |
| `Cc1cc(NC(=O)C(C)Cn2cncn2)no1` (stereo unspecified) | -9.093% & 3.754% | -3.096% & 9.04% |
| `CN(CC(F)(F)F)C(=O)CNC(=O)Cc1cccc(O)c1` | - | -25.68% |

Some entries from above, unchanged:

* Cc1ccc(CNC(=O)Cn2c(=O)c3cccnc3n2C)cc1F | Mtb growth Cornell: -15.1%; Mtb heat-shock: -5.079%
* Cc1cc(C)n(C2CCCN(C(=O)Cc3cccc(F)c3)C2)n1 (stereo unspecified) | Mtb heat-shock: -12.55%
* NC(=O)Nc1cccc(C(=O)N(Cc2ccncc2)C2CC2)c1 | Mtb growth Cornell: 1.847%; Mtb heat-shock: -26.93%
* Cn1c(=O)oc2ccc(Nc3ncc(C#N)cc3Cl)cc21 | Mtb growth Cornell: 31.13%; Mtb heat-shock: -15.51%
* OC1(CN2CCCCC2)CCN(c2cccc(C(F)(F)F)n2)C1 (stereo unspecified) | Mtb heat-shock: -13.89%

From ChEMBL document CHEMBL3988442, “University of Dundee, Small-Polar-MMV Screening Library” (2021).